Here are results for one molecule from paper PMC9492659.

The chains behind the UniProt entries cited, without tags or fusion partners.
UniProt P51159: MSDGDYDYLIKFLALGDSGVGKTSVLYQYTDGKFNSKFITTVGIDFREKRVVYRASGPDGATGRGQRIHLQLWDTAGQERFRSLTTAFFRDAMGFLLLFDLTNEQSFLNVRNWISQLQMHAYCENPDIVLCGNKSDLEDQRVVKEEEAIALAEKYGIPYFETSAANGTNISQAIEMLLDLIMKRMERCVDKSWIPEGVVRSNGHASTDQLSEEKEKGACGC

Results are given in words; binding and its absence hold for the method and conditions named. Binding seen in cells or lysates may run through a third protein. Some entries that bind do so weakly or less than the wild type. Where a sequence is shown, tags or fusion partners need not be part of it.

In the test the target is EGFP-Rab27a (UniProt P51159). In words: FRET or BRET; TR-FRET: cell lysates obtained by nitrogen cavitation (intact organelles) expressing Myc-JFC1 or EGFP-Rab27a and mCherry-WASH were mixed and incubated with terbium-conjugated anti-Myc antibody for 10 min; excitation 340 nm; emission ratio 520 nm/490 nm; with or without WASH.

B1: Myc-JFC1 (protein, UniProt Q8IYJ3 1-562)
chain: MPQRGHPSQEGLWALPSLPMAHGPKPETEGLLDLSFLTEEEQEAIAGVLQRDARLRQLEEGRVSKLRASVADPGQLKILTGDWFQEARSQRHHNAHFGSDLVRASMRRKKSTRGDQAPGHDREAEAAVKEKEEGPEPRLTIDEAPQERLRETEGPDFPSPSVPLKASDPEEASQAQEDPGQGDQQVCAEEADPELEPASGGEQEPRPQQAQTKAASQILENGEEAPGPDPSLDRMLSSSSSVSSLNSSTLSGSQMSLSGDAEAVQVRGSVHFALHYEPGAAELRVHVIQCQGLAAARRRRSDPYVKSYLLPDKQSKRKTAVKKRNLNPVFNETLRYSVPQAELQGRVLSLSVWHRESLGRNIFLGEVEVPLDTWDWGSEPTWLPLQPRVPPSPDDLPSRGLLALSLKYVPAGSEGAGLPPSGELHFWVKEARDLLPLRAGSLDTYVQCFVLPDDSQASRQRTRVVRRSLSPVFNHTMVYDGFGPADLRQACAELSLWDHGALANRQLGGTRLSLGTGSSYGLQVPWMDSTPEEKQLWQALLEQPCEWVDGLLPLRTNLAPRT
Consider B1, for which the binding result was “binds”.
